According to PMC8274477:
These are yes or no findings as the source states them, for the method shown. Some binding calls cover weakened binding; strength is not graded here.

By UniProt entry, the sequences of proteins in these tests, tags left out.
UniProt Q9C0C7: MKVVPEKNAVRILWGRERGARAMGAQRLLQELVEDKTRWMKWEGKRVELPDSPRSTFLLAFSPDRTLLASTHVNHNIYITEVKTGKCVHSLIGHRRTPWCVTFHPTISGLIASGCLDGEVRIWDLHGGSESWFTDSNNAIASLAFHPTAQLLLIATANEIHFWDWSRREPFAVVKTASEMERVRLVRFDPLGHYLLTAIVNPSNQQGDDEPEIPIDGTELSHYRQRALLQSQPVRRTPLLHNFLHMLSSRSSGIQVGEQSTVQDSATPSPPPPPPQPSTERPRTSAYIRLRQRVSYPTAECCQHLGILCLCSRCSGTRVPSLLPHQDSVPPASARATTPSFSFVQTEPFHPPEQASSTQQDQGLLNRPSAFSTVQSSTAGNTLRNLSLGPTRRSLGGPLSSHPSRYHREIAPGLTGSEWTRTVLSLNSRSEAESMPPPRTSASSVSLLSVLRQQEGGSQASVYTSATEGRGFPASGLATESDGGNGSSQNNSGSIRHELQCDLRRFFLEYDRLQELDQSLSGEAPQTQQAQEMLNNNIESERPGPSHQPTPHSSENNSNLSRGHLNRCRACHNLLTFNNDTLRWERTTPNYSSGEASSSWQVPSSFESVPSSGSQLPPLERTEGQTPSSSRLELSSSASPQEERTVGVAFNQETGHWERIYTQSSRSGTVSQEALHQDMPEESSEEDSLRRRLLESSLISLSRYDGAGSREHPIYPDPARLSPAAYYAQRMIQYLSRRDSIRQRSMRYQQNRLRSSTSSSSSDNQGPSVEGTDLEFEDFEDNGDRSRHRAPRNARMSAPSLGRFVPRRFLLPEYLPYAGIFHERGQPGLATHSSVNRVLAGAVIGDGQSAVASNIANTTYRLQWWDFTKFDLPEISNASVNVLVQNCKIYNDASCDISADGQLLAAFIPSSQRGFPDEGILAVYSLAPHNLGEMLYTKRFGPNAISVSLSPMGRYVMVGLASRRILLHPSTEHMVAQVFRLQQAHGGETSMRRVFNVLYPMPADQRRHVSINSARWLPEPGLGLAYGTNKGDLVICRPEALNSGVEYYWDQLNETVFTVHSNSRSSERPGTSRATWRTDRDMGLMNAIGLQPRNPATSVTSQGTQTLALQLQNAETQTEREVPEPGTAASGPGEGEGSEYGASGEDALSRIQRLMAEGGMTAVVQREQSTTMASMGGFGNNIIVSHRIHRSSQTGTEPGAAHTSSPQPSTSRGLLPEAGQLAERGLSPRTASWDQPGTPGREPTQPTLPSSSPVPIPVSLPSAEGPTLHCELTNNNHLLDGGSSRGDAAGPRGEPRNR
UniProt Q7Z5L9: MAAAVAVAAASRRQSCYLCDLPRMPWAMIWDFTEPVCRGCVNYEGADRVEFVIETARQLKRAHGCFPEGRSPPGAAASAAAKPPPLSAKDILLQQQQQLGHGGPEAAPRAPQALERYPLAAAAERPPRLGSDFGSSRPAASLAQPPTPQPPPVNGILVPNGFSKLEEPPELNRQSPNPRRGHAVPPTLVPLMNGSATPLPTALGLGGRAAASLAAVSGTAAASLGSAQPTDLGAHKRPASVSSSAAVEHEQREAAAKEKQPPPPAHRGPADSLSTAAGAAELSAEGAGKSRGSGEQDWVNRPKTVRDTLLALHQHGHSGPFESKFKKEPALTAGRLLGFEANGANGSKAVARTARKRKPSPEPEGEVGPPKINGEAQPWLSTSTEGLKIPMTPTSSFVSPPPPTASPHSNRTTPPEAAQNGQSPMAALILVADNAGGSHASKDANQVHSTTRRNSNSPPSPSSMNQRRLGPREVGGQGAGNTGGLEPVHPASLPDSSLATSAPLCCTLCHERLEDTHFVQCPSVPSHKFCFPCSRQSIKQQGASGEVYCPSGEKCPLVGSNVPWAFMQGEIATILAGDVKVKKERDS

Experiments:
Assay in all cases: peptide or protein array; HuProt human proteome microarray; 5 ug/5 ml biotin-labelled LUBAC or OTULIN in solution, 1 h at room temperature; Cy5-streptavidin, scanned at 635 nm; BSA as negative control; hits: Z-score >= 3 and I_(Mean_Ratio) >= 1.4; both purified
AMBRA1 (human) = AMBRA1 (human) (UniProt Q9C0C7)
TK1 (human) = biological target: T1, TK1 (human) (UniProt P04183)
T1 sequence: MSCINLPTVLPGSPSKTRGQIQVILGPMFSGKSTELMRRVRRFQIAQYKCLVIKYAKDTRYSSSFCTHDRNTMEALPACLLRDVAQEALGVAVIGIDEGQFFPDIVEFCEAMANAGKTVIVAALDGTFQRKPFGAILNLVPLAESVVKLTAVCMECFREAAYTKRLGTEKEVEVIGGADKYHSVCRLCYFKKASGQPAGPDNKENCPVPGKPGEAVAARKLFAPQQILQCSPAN

ALKBH3 (human) = biological target: T2, ALKBH3 (human) (UniProt Q96Q83)
T2 sequence: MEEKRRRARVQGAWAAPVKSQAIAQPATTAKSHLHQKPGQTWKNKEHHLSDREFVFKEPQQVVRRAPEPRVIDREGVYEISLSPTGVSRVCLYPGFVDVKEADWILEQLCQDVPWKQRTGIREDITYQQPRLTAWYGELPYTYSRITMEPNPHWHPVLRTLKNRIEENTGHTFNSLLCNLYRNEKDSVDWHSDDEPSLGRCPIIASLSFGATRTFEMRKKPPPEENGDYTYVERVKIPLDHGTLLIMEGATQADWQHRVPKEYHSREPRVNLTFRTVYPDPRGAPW

IRF2BP2 (human) = IRF2BP2 (human) (UniProt Q7Z5L9)
MAGEB1 (human) = biological target: T3, MAGEB1 (human) (UniProt P43366)
T3 sequence: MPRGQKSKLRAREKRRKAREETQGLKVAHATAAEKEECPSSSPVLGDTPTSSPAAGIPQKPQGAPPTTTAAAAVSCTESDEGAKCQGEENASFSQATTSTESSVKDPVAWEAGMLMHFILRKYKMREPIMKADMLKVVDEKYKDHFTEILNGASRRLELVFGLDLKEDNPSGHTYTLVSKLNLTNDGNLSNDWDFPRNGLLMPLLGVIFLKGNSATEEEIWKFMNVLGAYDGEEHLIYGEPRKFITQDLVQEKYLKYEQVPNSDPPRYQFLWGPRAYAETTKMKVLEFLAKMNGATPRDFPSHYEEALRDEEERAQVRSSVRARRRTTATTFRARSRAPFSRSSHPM

KCNAB2 (human) = biological target: T4, KCNAB2 (human) (UniProt Q13303)
T4 sequence: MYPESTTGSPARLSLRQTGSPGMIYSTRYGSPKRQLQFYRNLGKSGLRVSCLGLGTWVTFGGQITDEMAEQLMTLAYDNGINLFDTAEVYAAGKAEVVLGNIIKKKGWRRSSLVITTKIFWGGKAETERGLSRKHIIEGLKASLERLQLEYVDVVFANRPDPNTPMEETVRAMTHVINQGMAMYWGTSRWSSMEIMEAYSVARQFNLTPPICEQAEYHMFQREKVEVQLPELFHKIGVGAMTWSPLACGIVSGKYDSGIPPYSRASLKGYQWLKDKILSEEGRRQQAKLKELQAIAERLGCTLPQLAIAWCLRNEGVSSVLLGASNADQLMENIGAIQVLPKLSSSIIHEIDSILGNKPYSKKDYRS

RBMS2 (human) = biological target: T5, RBMS2 (human) (UniProt Q15434)
T5 sequence: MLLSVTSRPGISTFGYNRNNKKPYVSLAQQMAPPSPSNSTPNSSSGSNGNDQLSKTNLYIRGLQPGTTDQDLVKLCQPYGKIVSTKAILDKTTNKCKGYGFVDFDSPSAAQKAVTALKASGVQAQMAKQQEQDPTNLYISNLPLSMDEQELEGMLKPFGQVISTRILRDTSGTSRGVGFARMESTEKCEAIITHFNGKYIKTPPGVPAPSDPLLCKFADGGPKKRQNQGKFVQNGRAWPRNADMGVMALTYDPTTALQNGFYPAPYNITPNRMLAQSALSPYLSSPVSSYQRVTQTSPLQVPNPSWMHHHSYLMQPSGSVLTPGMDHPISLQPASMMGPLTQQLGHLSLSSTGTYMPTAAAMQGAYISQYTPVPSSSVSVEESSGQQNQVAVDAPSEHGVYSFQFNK

binding (AMBRA1 (human)): binds | binding (TK1 (human)): binds | binding (ALKBH3 (human)): binds | binding (IRF2BP2 (human)): binds | binding (MAGEB1 (human)): binds | binding (KCNAB2 (human)): binds | binding (RBMS2 (human)): binds
Substance: linear ubiquitin chain assembly complex (LUBAC), purified as HIS-tagged HOIP with the subunit HOIL-1, biotin-labelled (from UniProt Q96EP0 1-1072; Q9BYM8 1-510)
